Test results taken from patent publication CN117024595A.
These are yes or no findings as the source states them, for the method shown. Some entries that bind do so weakly or less than the wild type.

The chains behind the UniProt entries cited, without tags or fusion partners. Residues count along the entry.
UniProt Q01638, residues 19-328: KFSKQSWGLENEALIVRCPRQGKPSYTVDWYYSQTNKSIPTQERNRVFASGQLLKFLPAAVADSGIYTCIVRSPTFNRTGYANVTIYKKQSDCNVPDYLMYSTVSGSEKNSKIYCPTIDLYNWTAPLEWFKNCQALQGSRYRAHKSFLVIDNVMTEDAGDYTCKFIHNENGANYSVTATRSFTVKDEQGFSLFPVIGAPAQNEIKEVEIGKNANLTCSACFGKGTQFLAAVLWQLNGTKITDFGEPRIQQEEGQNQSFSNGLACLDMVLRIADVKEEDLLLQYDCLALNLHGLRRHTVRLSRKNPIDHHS

Tests used:
人ST2抗原 (human) [1] = molecular target: 人ST2抗原 (human) (UniProt Q01638); experiment: double-antibody sandwich ELISA with C11, OD450
人ST2抗原 (human) [2] = molecular target: 人ST2抗原 (human) (UniProt Q01638); experiment: fluorescent immunochromatographic strip, C11 on the T line, D12 on fluorescent microspheres

- binding (人ST2抗原 (human) [1]): binds
- binding (人ST2抗原 (human) [2]): binds
B1: 检测抗体D12(抗人ST2的单克隆抗体) (antibody, V domains shown)
VH: QVTLKESGPGILQPSQTLSLTCSFSGFSLSTSGMGVGWIRQPSGKGLEWLAHIWWDDVKQYNPALKSRLTISKDTSSSQVFLKIASVDTADIATYYCARLGGNWDYFDYWGQGTTLTVSS
VL: DIVLTQSPASLVVSLGQRATISCRASESVDSCGVSFMKWLQQKPGQPPKLLIYVASKVESGVPARFGGSGSGTDFSLNIHPVEEDDFAVYFCQQSRKVPWTFGGGTKLEIK
